# No constants are given. Whether binding was seen depends on the method and setting. Some binding calls cover weakened binding; strength is not graded here. Tags and fused reporters may be left off the sequences shown.
# Amino acid sequences for entries named in this document (tags omitted). Residues count along the entry.
# UniProt P31994, residues 43-310: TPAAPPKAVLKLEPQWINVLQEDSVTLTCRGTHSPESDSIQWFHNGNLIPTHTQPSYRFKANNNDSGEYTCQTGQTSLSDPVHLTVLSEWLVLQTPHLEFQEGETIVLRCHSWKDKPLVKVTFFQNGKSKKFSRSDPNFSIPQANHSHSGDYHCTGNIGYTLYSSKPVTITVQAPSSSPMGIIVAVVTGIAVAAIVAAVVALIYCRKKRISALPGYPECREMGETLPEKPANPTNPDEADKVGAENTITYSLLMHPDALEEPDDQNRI
# B1: anti-CD137 IgG2 with Fc variant G2m28 (antibody)
# heavy: EVQLVQSGAEVKKPGESLRISCKGSGYSFSTYWISWVRQMPGKGLEWMGKIYPGDSYTNYSPSFQGQVTISADKSISTAYLQWSSLKASDTAMYYCARGYGIFDYWGQGTLVTVSSASTKGPSVFPLAPCSRSTSESTAALGCLVKDYFPEPVTVSWNSGALTSGVHTFPAVLQSSGLYSLSSVVTVPSSNFGTQTYTCNVDHKPSNTKVDKTVERKCCVECPPCPAPPVAPSVFLFPPKPKDTLMISRTPEVTCVVVDVEHEDPEVQFNWYVDGVEVHNAKTKPREEQFNSTFRVVSVLTVVHQDWLNGKEYKCKVSNKGLPAPIEKTISKTKGQPREPQVYTLPPSREEMTKNQVSLTCLVKGFYPSDIAVEWESNGQPENNYKTTPPMLDSDGSFFLYSKLTVDKSRWQQGNVFSCSVMHEALHNHYTQKSLSLSPGK
# light: SYELTQPPSVSVSPGQTASITCSGDNIGDQYAHWYQQKPGQSPVLVIYQDKNRPSGIPERFSGSNSGNTATLTISGTQAMDEADYYCATYTGFGSLAVFGGGTKLTVLGQPKAAPSVTLFPPSSEELQANKATLVCLISDFYPGAVTVAWKADSSPVKAGVETTTPSKQSNNKYAASSYLSLTPEQWKSHRSYSCQVTHEGSTVEKTVAPTECS
# Target: human FcγRIIB expressed on CHO cells (human) (UniProt P31994)
# Experiment: FACS, CHO cells expressing FcγRIIB
binder,measurement,value
B1,binding,binds
